Some entries share one result that the patent states for a list of compounds.
Target: T1, human JAK1 kinase domain (Homo sapiens, UniProt P23458)
T1 construct: made in house; host or cells: SF9 insect cells (baculovirus)
Test: JAK1 inhibition assay (Example B), Caliper LabChip peptide phosphorylation
Format: biochemical
Conditions: 1.5 nM JAK1, 25 μM ATP, Morrison tight binding model; read-out: Ki in a JAK1 kinase activity assay (Example B)

Protein sequences, listed by entry. Tags and fused reporters are not part of them. Residues count along the entry.
UniProt P23458, 852-1154: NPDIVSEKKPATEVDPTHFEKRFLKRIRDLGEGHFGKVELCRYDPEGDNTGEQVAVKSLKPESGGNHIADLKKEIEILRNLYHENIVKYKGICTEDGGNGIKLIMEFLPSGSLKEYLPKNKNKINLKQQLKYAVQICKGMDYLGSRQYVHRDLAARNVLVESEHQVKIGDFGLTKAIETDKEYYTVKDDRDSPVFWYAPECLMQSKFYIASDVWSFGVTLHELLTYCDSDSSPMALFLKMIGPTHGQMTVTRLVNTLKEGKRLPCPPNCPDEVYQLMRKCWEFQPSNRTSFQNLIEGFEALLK

Question: Which Ki does the source give for `CS(=O)(=O)NCc1nc2cnc3[nH]ccc3c2n1C1CCN(Cc2ccccc2)CC1(F)F` (racemic) [Example 946, N-[1-(1-Benzyl-3,3-difluoro-piperidin-4-yl)-1,6-dihydro-1,3,5,6-tetraaza-as-indacen-2-ylmethyl]-methanesulfonamide] here?
Answer: The Ki was under 500 nM.

Question: `OCc1nc2cnc3[nH]ccc3c2n1C1CCN(Cc2ccccc2)CC1(F)F` (racemic) [Example 947, [1-(1-Benzyl-3,3-difluoro-piperidin-4-yl)-1,6-dihydro-1,3,5,6-tetraaza-as-indacen-2-yl]-methanol] was tested. Which Ki did it give?
Answer: Its Ki is under 500 nM.

Question: `OCc1nc2cnc3[nH]ccc3c2n1C1CCNCC1(F)F` (racemic) [Example 948, [1-(3,3-Difluoro-piperidin-4-yl)-1,6-dihydro-1,3,5,6-tetraaza-as-indacen-2-yl]-methanol] was tested. Which Ki did it give?
Answer: Its Ki is under 500 nM.

Question: How did the Ki turn out when `CN1CCCCCC1C(=O)N1CCC(n2cnc3cnc4[nH]ccc4c32)CC1` (racemic) [Example 953, (1-Methyl-azepan-2-yl)-[4-(6H-1,3,5,6-tetraaza-as-indacen-1-yl)-piperidin-1-yl]-methanone] was run?
Answer: The Ki was under 500 nM.

Question: For `Cn1cc2c(n1)CCC(n1cnc3cnc4[nH]ccc4c31)C2` (racemic) [Example 956, 1-(2-Methyl-4,5,6,7-tetrahydro-2H-indazol-5-yl)-1,6-dihydro-1,3,5,6-tetraaza-as-indacene], which Ki is on record?
Answer: The Ki was under 500 nM.

Question: Which Ki does the source give for `NC(=O)Cc1nc2cnc3[nH]ccc3c2n1C1CCCOC1` (racemic) [Example 960, 2-[1-(Tetrahydro-pyran-3-yl)-1,6-dihydro-1,3,5,6-tetraaza-as-indacen-2-yl]-acetamide] here?
Answer: Its Ki is under 500 nM.

Question: Which Ki does the source give for `CNC(=O)Cc1nc2cnc3[nH]ccc3c2n1C1CCCOC1` (racemic) [Example 961, N-Methyl-2-[1-(tetrahydro-pyran-3-yl)-1,6-dihydro-1,3,5,6-tetraaza-as-indacen-2-yl]-acetamide] here?
Answer: Its Ki is under 500 nM.

Question: `CCNC(=O)Cc1nc2cnc3[nH]ccc3c2n1C1CCCOC1` (racemic) [Example 962, N-Ethyl-2-[1-(tetrahydro-pyran-3-yl)-1,6-dihydro-1,3,5,6-tetraaza-as-indacen-2-yl]-acetamide] was tested. Which Ki did it give?
Answer: The Ki was under 500 nM.

Question: `CC(C)NC(=O)Cc1nc2cnc3[nH]ccc3c2n1C1CCCOC1` (racemic) [Example 963, N-Isopropyl-2-[1-(tetrahydro-pyran-3-yl)-1,6-dihydro-1,3,5,6-tetraaza-as-indacen-2-yl]-acetamide] was tested. Which Ki did it give?
Answer: The Ki was under 500 nM.

Question: `O=C(Cc1nc2cnc3[nH]ccc3c2n1C1CCCOC1)NC1CCC1` (racemic) [Example 965, N-Cyclobutyl-2-[1-(tetrahydro-pyran-3-yl)-1,6-dihydro-1,3,5,6-tetraaza-as-indacen-2-yl]-acetamide] was tested. Which Ki did it give?
Answer: Its Ki is under 500 nM.

Question: How did the Ki turn out when `CC(C)CNC(=O)Cc1nc2cnc3[nH]ccc3c2n1C1CCCOC1` (racemic) [Example 966, N-Isobutyl-2-[1-(tetrahydro-pyran-3-yl)-1,6-dihydro-1,3,5,6-tetraaza-as-indacen-2-yl]-acetamide] was run?
Answer: The Ki was under 500 nM.

Question: `O=C(Cc1nc2cnc3[nH]ccc3c2n1C1CCCOC1)N1CCC1` (racemic) [Example 967, 1-Azetidin-1-yl-2-[1-(tetrahydro-pyran-3-yl)-1,6-dihydro-1,3,5,6-tetraaza-as-indacen-2-yl]-ethanone] was tested. Which Ki did it give?
Answer: The Ki was under 500 nM.

Question: How did the Ki turn out when `O=C(Cc1nc2cnc3[nH]ccc3c2n1C1CCCOC1)N1CCCC1` (racemic) [Example 968, 1-Pyrrolidin-1-yl-2-[1-(tetrahydro-pyran-3-yl)-1,6-dihydro-1,3,5,6-tetraaza-as-indacen-2-yl]-ethanone] was run?
Answer: The Ki was under 500 nM.

Question: How did the Ki turn out when `CN(CCO)C(=O)Cc1nc2cnc3[nH]ccc3c2n1C1CCCOC1` (racemic) [Example 969, N-(2-Hydroxy-ethyl)-N-methyl-2-[1-(tetrahydro-pyran-3-yl)-1,6-dihydro-1,3,5,6-tetraaza-as-indacen-2-yl]-acetamide] was run?
Answer: The Ki was under 500 nM.

Question: With `CN(C)C(=O)CNC(=O)Cc1nc2cnc3[nH]ccc3c2n1C1CCCOC1` (racemic) [Example 970, N-Dimethylcarbamoylmethyl-2-[1-(tetrahydro-pyran-3-yl)-1,6-dihydro-1,3,5,6-tetraaza-as-indacen-2-yl]-acetamide] as the molecule, how does the Ki read?
Answer: Its Ki is under 500 nM.

Question: Which Ki does the source give for `O=C(Cc1nc2cnc3[nH]ccc3c2n1C1CCCOC1)N1CC(F)(F)C1` (racemic) [Example 971, 1-(3,3-Difluoro-azetidin-1-yl)-2-[1-(tetrahydro-pyran-3-yl)-1,6-dihydro-1,3,5,6-tetraaza-as-indacen-2-yl]-ethanone] here?
Answer: Its Ki is under 500 nM.

Question: For `O=C(Cc1nc2cnc3[nH]ccc3c2n1C1CCCOC1)NC1CCC(F)(F)CC1` (racemic) [Example 972, N-(4,4-Difluoro-cyclohexyl)-2-[1-(tetrahydro-pyran-3-yl)-1,6-dihydro-1,3,5,6-tetraaza-as-indacen-2-yl]-acetamide], which Ki is on record?
Answer: Its Ki is under 500 nM.

Question: Which Ki does the source give for `O=C(Cc1nc2cnc3[nH]ccc3c2n1C1CCCOC1)NCC(F)F` (racemic) [Example 973, N-(2,2-Difluoro-ethyl)-2-[1-(tetrahydro-pyran-3-yl)-1,6-dihydro-1,3,5,6-tetraaza-as-indacen-2-yl]-acetamide] here?
Answer: The Ki was under 500 nM.

Question: With `O=C(Cc1nc2cnc3[nH]ccc3c2n1C1CCCOC1)NC1CCCC1` (racemic) [Example 974, N-Cyclopentyl-2-[1-(tetrahydro-pyran-3-yl)-1,6-dihydro-1,3,5,6-tetraaza-as-indacen-2-yl]-acetamide] as the molecule, how does the Ki read?
Answer: Its Ki is under 500 nM.

Question: `O=C(Cc1nc2cnc3[nH]ccc3c2n1C1CCCOC1)NCCn1ccnc1` (racemic) [Example 975, N-(2-Imidazol-1-yl-ethyl)-2-[1-(tetrahydro-pyran-3-yl)-1,6-dihydro-1,3,5,6-tetraaza-as-indacen-2-yl]-acetamide] was tested. Which Ki did it give?
Answer: Its Ki is under 500 nM.

Question: For `O=C(Cc1nc2cnc3[nH]ccc3c2n1C1CCCOC1)N1CCN(CCO)CC1` (racemic) [Example 976, 1-[4-(2-Hydroxy-ethyl)-piperazin-1-yl]-2-[1-(tetrahydro-pyran-3-yl)-1,6-dihydro-1,3,5,6-tetraaza-as-indacen-2-yl]-ethanone], which Ki is on record?
Answer: The Ki was under 500 nM.

Question: Which Ki does the source give for `CC(=O)N1CCN(C(=O)Cc2nc3cnc4[nH]ccc4c3n2C2CCCOC2)CC1` (racemic) [Example 977, 1-(4-Acetyl-piperazin-1-yl)-2-[1-(tetrahydro-pyran-3-yl)-1,6-dihydro-1,3,5,6-tetraaza-as-indacen-2-yl]-ethanone] here?
Answer: The Ki was under 500 nM.

Question: With `O=C(Cc1nc2cnc3[nH]ccc3c2n1C1CCCOC1)N1CCC(F)(F)CC1` (racemic) [Example 978, 1-(4,4-Difluoro-piperidin-1-yl)-2-[1-(tetrahydro-pyran-3-yl)-1,6-dihydro-1,3,5,6-tetraaza-as-indacen-2-yl]-ethanone] as the molecule, how does the Ki read?
Answer: The Ki was under 500 nM.

Question: Which Ki does the source give for `O=C(Cc1nc2cnc3[nH]ccc3c2n1C1CCCOC1)N1CCS(=O)(=O)CC1` (racemic) [Example 979, 1-(1,1-Dioxo-1$1%6&-thiomorpholin-4-yl)-2-[1-(tetrahydro-pyran-3-yl)-1,6-dihydro-1,3,5,6-tetraaza-as-indacen-2-yl]-ethanone] here?
Answer: The Ki was under 500 nM.

Question: For `O=C(Cc1nc2cnc3[nH]ccc3c2n1C1CCCOC1)N1CCCOCC1` (racemic) [Example 980, 1-[1,4]Oxazepan-4-yl-2-[1-(tetrahydro-pyran-3-yl)-1,6-dihydro-1,3,5,6-tetraaza-as-indacen-2-yl]-ethanone], which Ki is on record?
Answer: Its Ki is under 500 nM.

Question: How did the Ki turn out when `CN1CCC(NC(=O)Cc2nc3cnc4[nH]ccc4c3n2C2CCCOC2)CC1` (racemic) [Example 981, N-(1-Methyl-piperidin-4-yl)-2-[1-(tetrahydro-pyran-3-yl)-1,6-dihydro-1,3,5,6-tetraaza-as-indacen-2-yl]-acetamide] was run?
Answer: Its Ki is under 500 nM.

Question: For `O=C(Cc1nc2cnc3[nH]ccc3c2n1C1CCCOC1)N1CCCC(O)C1` (racemic) [Example 982, 1-(3-Hydroxy-piperidin-1-yl)-2-[1-(tetrahydro-pyran-3-yl)-1,6-dihydro-1,3,5,6-tetraaza-as-indacen-2-yl]-ethanone], which Ki is on record?
Answer: The Ki was under 500 nM.

Question: `O=C(Cc1nc2cnc3[nH]ccc3c2n1C1CCCOC1)NC1CCOCC1` (racemic) [Example 983, N-(Tetrahydro-pyran-4-yl)-2-[1-(tetrahydro-pyran-3-yl)-1,6-dihydro-1,3,5,6-tetraaza-as-indacen-2-yl]-acetamide] was tested. Which Ki did it give?
Answer: Its Ki is under 500 nM.

Question: How did the Ki turn out when `O=C(Cc1nc2cnc3[nH]ccc3c2n1C1CCCOC1)N1CCC(CO)CC1` (racemic) [Example 984, 1-(4-Hydroxymethyl-piperidin-1-yl)-2-[1-(tetrahydro-pyran-3-yl)-1,6-dihydro-1,3,5,6-tetraaza-as-indacen-2-yl]-ethanone] was run?
Answer: The Ki was under 500 nM.

Question: Which Ki does the source give for `O=C(Cc1nc2cnc3[nH]ccc3c2n1C1CCCOC1)N1CCSCC1` (racemic) [Example 985, 2-[1-(Tetrahydro-pyran-3-yl)-1,6-dihydro-1,3,5,6-tetraaza-as-indacen-2-yl]-1-thiomorpholin-4-yl-ethanone] here?
Answer: The Ki was under 500 nM.

Question: For `O=C(Cc1nc2cnc3[nH]ccc3c2n1C1CCCOC1)N1CCC(O)CC1` (racemic) [Example 986, 1-(4-Hydroxy-piperidin-1-yl)-2-[1-(tetrahydro-pyran-3-yl)-1,6-dihydro-1,3,5,6-tetraaza-as-indacen-2-yl]-ethanone], which Ki is on record?
Answer: The Ki was under 500 nM.

Question: Which Ki does the source give for `Cc1nc2cnc3[nH]ccc3c2n1C1CCCCNC1` (racemic) [Example 987, 1-Azepan-3-yl-2-methyl-1,6-dihydro-1,3,5,6-tetraaza-as-indacene] here?
Answer: The Ki was under 500 nM.

Question: Which Ki does the source give for `N#CCC(=O)N1CCCCC(n2cnc3cnc4[nH]ccc4c32)C1` (racemic) [Example 988, 3-Oxo-3-[3-(6H-1,3,5,6-tetraaza-as-indacen-1-yl)-azepan-1-yl]-propionitrile] here?
Answer: Its Ki is under 500 nM.

Question: `N#CCCN1CCCCC(n2cnc3cnc4[nH]ccc4c32)C1` (racemic) [Example 989, 3-[3-(6H-1,3,5,6-Tetraaza-as-indacen-1-yl)-azepan-1-yl]-propionitrile] was tested. Which Ki did it give?
Answer: The Ki was under 500 nM.

Question: Which Ki does the source give for `Cc1nc2cnc3[nH]ccc3c2n1C1CCc2nc[nH]c2C1` (racemic) [Example 990, 2-Methyl-1-(4,5,6,7-tetrahydro-3H-benzoimidazol-5-yl)-1,6-dihydro-1,3,5,6-tetraaza-as-indacene] here?
Answer: The Ki was under 500 nM.

Question: For `N#CCCn1cc2c(n1)CCC(n1cnc3cnc4[nH]ccc4c31)C2` (racemic) [Example 991, 3-[5-(6H-1,3,5,6-Tetraaza-as-indacen-1-yl)-4,5,6,7-tetrahydro-indazol-2-yl]-propionitrile], which Ki is on record?
Answer: Its Ki is under 500 nM.

— patent US8461328B2, “Tricyclic heterocyclic compounds, compositions and methods of use thereof” (Genentech, Inc., priority 2010, dated 2013)
